# Experimental data reported in PMC8000447, “Assessment of Finite and Infinite Dose In Vitro Experiments in Transdermal Drug Delivery” (Pharmaceutics, 2021).
# How the values were obtained:
# [1] = Penetration assay with finite dosage using vertical Franz diffusion cells; type: in vitro ADME, pig; conditions: finite dose 20 µL in propylene glycol, 24 h, normalized amount, mean ± SD, n = 3
# Description: (§1) A porcine skin membrane was employed for both the permeation and penetration assays. […] The skin was provided by the Department of Cardiology of the Hospital Clinic (Barcelona, Spain). Dorsal unboiled skin (female white/landrace pigs) was prepared: the bristles were removed (A5 Clipper 78005-500, Oster professional, McMinnville, OR, USA) and dermatomed (Dermatome GA630, Aesculap, Tuttlingen, Germany) at 500 ± 50 μm thick. Thickness was verified with a digital micrometer 40EX (Mahr, Göttingen, Germany). Skin biopsies were cut into discs with 2.5 cm diameter. The skin discs were stored until the experiment (at −20 °C).
# OECD guidelines and the published opinions of the Scientific Committee on Cosmetic Products and Non-Food Products (SCCS) were adhered in the penetration protocol. The excised pig skin was placed in a static Franz diffusion cell (Lara Spiral, Couternon, France) (1.86 cm^2 and 3 mL) with the dermis side facing the acceptor chamber. The receptor chamber was filled with receptor fluid. The receptor fluid was the same used in the kinetic assay (Section 2.4). Air bubbles entrapped below the skin were carefully removed and the assembled cells were deposited in a temperature-regulated water bath (Telesystem HP 15, H+P Labortechnik GmgH, Oberschleissheim, Germany) on top of a water-resistant magnetic stirring plate (Variomag 15 and Telemodul, H+P Labortechnik GmgH, Oberschleissheim, Germany). The homogeneity of receptor fluid was maintained by continuously stirring at 700 rpm. The system was thermostatted at 43 ± 1 °C to provide a skin surface temperature of 32 ± 1 °C.
# The integrity and permeability of membranes were evaluated with the trans-epidermal water loss (TEWL) value as detailed in Section 2.3.
# The finite assay protocol was conducted as described in previous studies. Briefly, 20 µL of each API solution was applied to the skin surface in the donor chamber (n = 3). According to the OECD methodology used, penetration studies were performed for 24 h. After the exposure time, the receptor fluid of all the membranes was collected to transfer to a 5 mL volumetric flask. The remaining API solution was removed from skin surface with specific washing procedure (W). Stratum corneum layers were obtained by tape stripping protocol with adhesive tape (D-Squame, Cuderm Corporation, Dallas, TX, USA) applied under controlled pressure (80 g/cm^2). Viable epidermis (E) and the dermis (D) were separated after heating the skin at 80 °C for several seconds. All samples were extracted with adequate solvent (Table 1) and filtered with a 0.45 µm Nylon filter (Cameo, Sigma-Aldrich, St. Louis, MO, USA) before HPLC quantification (Section 2.6).
# The amount permeated in the skin was considered the sum of that in the epidermis, dermis, and receptor fluid. […]
# [2] = Kinetic permeation assay with infinite dosage using vertical Franz diffusion cells; type: in vitro ADME, pig; conditions: infinite dose 300 µL in propylene glycol (DS 3%, IBU 1%, LIDO 2%, CAF 1% w/v), mean ± SD
# Description: as §1
# The kinetic diffusion assay was conducted using a Vision Microette (Vision G2 V14.1) with an Autosampler and an Autofill Collector (Hanson Research, Chatworths, CA, USA) automated vertical diffusion cell (7 mL acceptor chamber, and surface area of application of 1.77 cm^2).
# The receptor fluid (RF) used was aqueous buffer solution of PBS in the case of DS, IBU, and CAF, and NaH2PO4 (0.05 M, pH = 7) in the case of LIDO. Receptor fluid was continuously stirred with magnetic beads at 700 rpm to keep the contents of the receptor chamber homogenous. The system was thermostatted at 43 ± 1 °C to provide a skin surface temperature of 32 ± 1 °C.
# Once TEWL was measured, 300 μL (infinite dose) of the four active solutions was applied in triplicate to each Franz cell (Hanson Research, Chatworths, CA, USA) and donor compartment was sealed to donor chamber to avoid evaporation. […] The content of receptor samples was diluted in 2 mL graduated flasks and filtered with a 0.45 µm nylon filter (Cameo, Sigma-Aldrich, St Louis, MO, USA) previous analyzed with a high-performance liquid chromatography-diode array detector (HPLC-DAD) (Section […]). The kinetics of penetration were determined, simulating the drug elimination in the body.
# The cumulative amount of the active pharmaceutical ingredient (API) per surface area (Qn, µg/cm^2) was obtained for each replicate cell to calculate the release of the four APIs. The equation used to determine the cumulative amount of API in the receptor fluid was the following Equation (1):(1) Qn= Cn×Vc+ ∑i=1n−1Ci×Vs/A where Qn is the cumulative amount of API released at time n (μg/cm^2); Cn is the concentration of active ingredient in the sample (μg/mL); Vc is the volume of the vertical diffusion cell; ∑i=1n−1 Ci is the sum of the concentrations of API (µg/mL) determined at sampling intervals 1 through n − 1; Vs is the sample volume and A is the surface area of the sample.
# The percentage of cumulative amount of API permeated over time was calculated by the following Equation (2):(2) % Release API= Qn/Total amount of API applied×100 […]
compound,measurement,setting,value
"CCN(CC)CC(=O)Nc1c(C)cccc1C [Lidocaine, lidocaine]",% API detected in dermis (D),[1],2.60 ± 0.40%
same,% API detected in epidermis (E),[1],2.92 ± 2.69%
same,% API detected in receptor fluid (RF),[1],54.73 ± 7.48%
same,% API detected in stratum corneum (SC),[1],4.77 ± 0.70%
same,AUC,"[2]; female, white/landrace, pig, receptor fluid, read-out: AUC (area under the curve)",109 ± 35.1 µg·h/mL
same,Cmax,"[2]; female, white/landrace, pig, receptor fluid, read-out: Cmax (maximum concentration)",50000 ± 11500 ng/mL
same,J (flux),[2]; n = 3,2.29 ± 0.30 µg/cm^2/h
same,AUC (%),[2]; percentage release,14.95 ± 6.09%
